The test system of the series is PRP cell population. In words: Flow analysis of depletion marker candidates against recoverin. The class given is cell-based, human. The note with it: depletion markers; for % antigen only: other cell types labeled.

B1: Podoplanin: Mucin-type transmembrane protein; depletion marker (protein, UniProt Q86YL7 23-162, looked up)
Podoplanin: ASTGQPEDDTETTGLEGGVAMPGAEDDVVTPGTSEDRYKSGLTTLVATSVNSVTGIRIEDLPTSESTVHAQEQSPSATASNVATSHSTEKVDGDTQTTVEKDGLSTVTLVGIIVGVLLAIGFIGAIIVVVMRKMSGRYSP
As to B1, the “% co-expression with RCVRN” value came to 3.6% and the “% antigen only” value was found to be 32.5%.

B2: CD9: Integral membrane protein associated with integrins; depletion marker (protein, UniProt P21926 2-228, looked up)
CD9 antigen: PVKGGTKCIKYLLFGFNFIFWLAGIAVLAIGLWLRFDSQTKSIFEQETNNNNSSFYTGVYILIGAGALMMLVGFLGCCGAVQESQCMLGLFFGFLLVIFAIEIAAAIWGYSHKDEVIKEVQEFYKDTYNKLKTKDEPQRETLKAIHYALNCCGLAGGVEQFISDICPKKDVLETFTVKSCPDAIKEVFDNKFHIIGAVGIGIAVVMIFGMIFSMILCCAIRRNREMV
For B2, the “% co-expression with RCVRN” value was found to be 5.4% and the “% antigen only” value stood at 32.7%.

The values above are taken from patent publication US12110503B2, “Method for differentiation of ocular cells and use thereof” (FUJIFILM Cellular Dynamics, Inc., priority 2018, dated 2024).
